Experimental data reported in PMC7219087.

Amino acid sequences for entries named in this document (tags omitted). A change or cut given only in a name is not applied to a line headed by its entry.
UniProt A4D998: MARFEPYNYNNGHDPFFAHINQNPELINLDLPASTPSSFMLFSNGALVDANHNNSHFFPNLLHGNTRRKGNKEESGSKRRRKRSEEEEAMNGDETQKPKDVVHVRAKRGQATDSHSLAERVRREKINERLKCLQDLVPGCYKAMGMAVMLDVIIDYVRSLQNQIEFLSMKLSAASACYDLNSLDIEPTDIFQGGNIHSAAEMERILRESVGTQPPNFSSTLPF

Legend:
[1] = target: CESTA (CES), split-YFP fusion for BiFC (Arabidopsis thaliana) (UniProt A4D998); assay: split reporter; BiFC with split YFP (pYFPN43 and pYFPC43) in agroinfiltrated tobacco leaves; abaxial surfaces observed 2-5 days after agroinfiltration by confocal microscopy; YFP fluorescence in nuclei
[2] = target: CESTA (CES), yeast two-hybrid fusion (Arabidopsis thaliana) (UniProt A4D998); assay: two-hybrid; GAL4 system (pGADT7 and pGBKT7), yeast strain AH109, cotransformation, 22°C; positive when growth on -W-L-H +15 mM 3-AT selective medium

- binding [1]: binds
Molecule: … (STK), split-YFP fusion for BiFC (from UniProt Q38836 1-230)

- binding [2]: binds
Molecule: … (STK), yeast two-hybrid fusion (from UniProt Q38836 1-230)

- binding [2]: binds
B1: BRASSINOSTEROID ENHANCED EXPRESSION1 (BEE1), yeast two-hybrid fusion (protein, UniProt Q8GZ13 1-260)
chain: MANFENLSSDFQTIAMDIYSSITQAADLNNNNSNLHFQTFHPSSTSLESLFLHHHQQQLLHFPGNSPDSSNNFSSTSSFLHSDHNIVDETKKRKALLPTLSSSETSGVSDNTNVIATETGSLRRGKRLKKKKEEEDEKEREVVHVRARRGQATDSHSLAERVRRGKINERLRCLQDMVPGCYKAMGMATMLDEIINYVQSLQNQVEFLSMKLTAASSFYDFNSETDAVDSMQRAKARETVEMGRQTRDGSPVFHLSTWSL

These are yes or no findings as the source states them, for the method shown. Binding can be weak; no strength is given. For part of these data: Sequences can lack the tags named with a protein. For part of these data: Binding seen in cells or lysates may run through a third protein. Each block holds one molecule with its values, some of them ahead of it.
